Data as given in patent US7393824B1, “Methods of peptide preparation” (Lytix Biopharma, priority 2000, dated 2008).
Not every detail of the peptide structures is certain; ends, links or a residue may be inferred. Residues, ends and D or L forms follow the SMILES beside them.

Test system: Meth A murine sarcoma cell line
Format: cell-based

SMILES	activity against MethA
CSCC[C@H](NC(=O)[C@H](CCCNC(=N)N)NC(=O)[C@H](C)NC(=O)[C@H](C)NC(=O)[C@H](C)NC(=O)[C@H](CCCNC(=N)N)NC(=O)[C@H](Cc1ccccc1)NC(=O)[C@H](C)NC(=O)[C@H](CCCCN)NC(=O)[C@H](CCCNC(=N)N)NC(=O)[C@H](Cc1c[nH]c2ccccc12)NC(=O)[C@H](C)NC(=O)[C@@H]1CCCN1)C(=O)N[C@@H](CC(C)C)C(=O)N[C@@H](CCCCN)C(=O)N[C@@H](CCCCN)C(=O)N[C@@H](C)C(=O)N[C@@H](C)C(=O)O [W9,11→A9,11, LFB 14-31A2,6,9,10,11,17F7K16L14R4] (H-PAWRKAFRAAARMLKKAA-OH)	only moderately active against MethA
CSCC[C@H](NC(=O)[C@H](CCCNC(=N)N)NC(=O)[C@H](Cc1c[nH]c2ccccc12)NC(=O)[C@H](C)NC(=O)[C@H](Cc1c[nH]c2ccccc12)NC(=O)[C@H](CCCNC(=N)N)NC(=O)[C@H](Cc1ccccc1)NC(=O)[C@H](C)NC(=O)[C@H](CCCCN)NC(=O)[C@H](CCCNC(=N)N)NC(=O)[C@H](C)NC(=O)[C@H](C)NC(=O)[C@@H]1CCCN1)C(=O)N[C@@H](CC(C)C)C(=O)N[C@@H](CCCCN)C(=O)N[C@@H](CCCCN)C(=O)N[C@@H](C)C(=O)N[C@@H](C)C(=O)O [W3→A3, LFB 14-31A2,3,6,10,17F7K16L14R4] (H-PAARKAFRWAWRMLKKAA-OH)	good activity against MethA cells
